Values quoted from earlier work, collected in patent US11464736B2, “Thermally gelling drug formulations” (UNM Rainforest Innovations, priority 2019, dated 2022).
Like-named read-outs stand apart in the source and are kept apart here.

solubility (in alcohol): very slightly soluble
solubility (physiological pH): practically insoluble
Structure (SMILES): CCC(C)n1ncn(-c2ccc(N3CCN(c4ccc(OCC5COC(Cn6cncn6)(c6ccc(Cl)cc6Cl)O5)cc4)CC3)cc2)c1=O (centres unmarked) [ITZ, Itraconazole]
